# Source: PubChem BioAssay AID540276 (National Center for Advancing Translational Sciences (NCATS), 2011)
# Values joined by “and” are separate entries in the source; they are usually repeats but may differ in a detail not shown here. Identical values can stand only once. The whole screen tested about 300,000 compounds, of which about 5,400 (1.8%) were called active. Inconclusive means that the source gave no clear call. Such entries were picked first, then a sample of the others. Calls follow the shape of the full dose curve; tested in HEK293 cells. Potencies beside an inconclusive call are fits to weak or partial responses and may not hold up.
# Assay: qHTS for inhibitors of binding or entry into cells for Marburg Virus
# Details: Marburg virus pseudotyped entry inhibition, cell reporter; activity change, negative = inhibition: at 37.8 µM (top of the series) unless noted
# % is scaled to controls: 0 for no effect and ±100 for the full control effect; potency is read from the fitted curve at half-maximal effect.
Structure (SMILES),Potency,"activity change, negative = inhibition"
CCOC(=O)CSc1nc2ccsc2c(=O)n1C1CCN(C(=O)OCC)CC1,"inconclusive: 6.51 µM [inhibitor, single point]",–
C/C(N)=C(/C#N)C(=O)COC(=O)c1cc2c(s1)CCC(C)C2 (configuration not stated),–,inactive: 1.95% [at 46.1 µM]
O=C(NCCc1ccc(Cl)cc1)C1CCCO1 (configuration not stated),–,inactive: 0.591%
C(#CCN1CCOCC1)COCc1ccccc1,"inconclusive: 12.6 µM [activator, single point]",–
CCOc1ccccc1N(C(=O)c1snc(C(N)=O)c1N)C(C(=O)NCC1CCCO1)c1ccc2ncccc2c1 (configuration not stated),–,inactive: -16.7% [at 46.1 µM]
Cc1ccc(SCc2cc(=O)[nH]c(Nc3nc(C)c4ccccc4n3)n2)cc1,"inconclusive: 11.2 µM [inhibitor, partial curve]",–
O=C(CSc1nc(-c2ccccc2)c(-c2ccccc2)[nH]1)N1CCN(S(=O)(=O)c2ccccc2)CC1,"inconclusive: 3.26 µM [inhibitor, partial curve, poor fit]",–
O=[N+]([O-])c1cccc(/C=C/c2nc(C=Nc3ccc4ccccc4c3)c(O)o2)c1,–,inactive: 23.6%
COc1cc(/C=C2\OC(=O)c3c(OC)cccc32)ccc1O,–,inactive: 15.1% [at 46.1 µM]
COC(=O)c1ccccc1NC(=O)NCc1c(C)nn(C)c1C,"inconclusive: 3.55 µM [inhibitor, full curve, poor fit]",–
Cc1cccc(NC2=Nc3ccccc3N3C2=Nc2c(c(C)nn2-c2ccccc2)C3c2ccc(O)c(O)c2)c1 (configuration not stated),inactive,–
Cc1cccc(S(=O)(=O)Nc2ccc(-c3cn4ccccc4n3)cc2)c1,–,inactive: -2.05%
O=C(c1cnn2c1NC(c1ccc(Br)cc1)CC2C(F)(F)F)N1CCN(C23CC4CC(CC(C4)C2)C3)CC1 (configuration not stated),active: 16.4 µM,–
O=[N+]([O-])c1ccc(OCc2nnc(-c3ccccc3)o2)cc1,"inconclusive: 2.82 µM [inhibitor, single point]",–
COCCCNc1nc2c(S(=O)(=O)c3ccccc3)nnn2c2ccc(Cl)cc12,"inconclusive: 22.4 µM [inhibitor, single point]",–
CC1CCc2sc(NC(=S)NC(=O)c3ccccc3)c(C#N)c2C1 (configuration not stated),"inconclusive: 0.562 µM [activator, full curve, poor fit]",–
NC(CO)(CO)COCc1ccccc1,"inconclusive: 5.62 µM [inhibitor, single point]",–
CC(NC(=O)CN1C(=O)COc2ccc(S(=O)(=O)N3CCCCCC3)cc21)c1ccccc1 (configuration not stated),–,inactive: 10.3% [at 46.1 µM]
COc1cccc(C(=O)/C=C/c2ccc(SC)cc2)c1,–,inactive: -1.77%
CCOc1ccccc1N1CCN(C(=S)NC(=O)C23CC4CC(CC(C4)C2)C3)CC1,"inconclusive: 25.1 µM [inhibitor, single point]",–
O=C(c1sccc1Cl)N1CCN(Cc2ccc3c(c2)OCO3)CC1,–,inactive: 15.1%
O=C(O/N=C/C1=C(Cl)c2ccccc2CC1)c1ccc(F)cc1,"inconclusive: 0.112 µM [activator, full curve, poor fit]",–
COc1ccc(C(=O)Nc2ccccc2C(=O)NCc2ccco2)cc1OC,–,inactive: -20.4%

Structure (SMILES),Potency,"activity change, negative = inhibition"
Cc1ccc(OCc2ccc(C(=O)Nc3nc4ccccc4n3Cc3ccccc3)o2)c([N+](=O)[O-])c1,"inconclusive: 0.355 µM [inhibitor, partial curve, poor fit]",–
CN(C)N=Nc1ccc(S(=O)(=O)NC(Cc2ccccc2)C(=O)O)cc1 (configuration not stated),"inconclusive: 0.501 µM [inhibitor, full curve, poor fit]",–
COCCN1Cc2cc3cc(C)ccc3nc2SC1=Nc1ccc(OC)cc1,"inconclusive: 5.62 µM [inhibitor, full curve, poor fit]",–
CC(C)OC(=O)CSc1nc(-c2ccc(F)cc2)cc(C(F)(F)F)n1,"inconclusive: 25.1 µM [inhibitor, partial curve, poor fit]",–
COc1ccc(OC)c(NC(=O)COC(=O)CN(C)S(=O)(=O)c2ccc(C)cc2)c1,"inconclusive: 1 µM [activator, single point]",–
O=C(Nc1ccc2c(c1)OCCO2)Nc1ccc2c(c1)OCO2,"inconclusive: 2.24 µM [activator, partial curve, poor fit]",–
CC1CCN(C(=O)CSc2nc3ccccc3c(=O)n2Cc2ccc3c(c2)OCO3)CC1,–,inactive: -27.5%
COc1cccc(-n2nnc3c(=O)n(Cc4ccc(C)cc4)cnc32)c1,"inconclusive: 3.66 µM [activator, single point]",–
CCSc1ccccc1C(=O)Nc1nc2ccccc2c(=O)[nH]1,"inconclusive: 12.6 µM [inhibitor, single point]",–
CCOCCCn1c(SCC(=O)Nc2cc(C)ccc2C)nc2c(oc3ccccc32)c1=O,–,inactive: 13.3% [at 46.1 µM]
CCn1cnc2sc(C(=O)Nc3ccc4c(c3)OCO4)c(C)c2c1=O,–,inactive: 14.9%
Cc1ccc(SCCC(=O)N2CCCC2)cc1,–,inactive: 11.5%
O=C(Cn1cccc1C(=O)c1ccccc1)NCCCc1ccccc1,–,inactive: -22% [at 46.1 µM]
Cc1cccc(CSc2nnc(-c3ccco3)n2C)c1,"inconclusive: 2.59 µM [activator, partial curve, poor fit]",–
COc1cccc(CNc2nc3ccccc3c3nc(-c4cccc(C)c4)nn23)c1,"inconclusive: 2.82 µM [activator, partial curve, poor fit]",–
Cc1nc2ccc(NC(=O)NCc3ccco3)cc2s1,"inconclusive: 4.61 µM [activator, full curve, poor fit]",–
CCN1CCc2nc(N)oc2CC1,"inconclusive: 6.31 µM [inhibitor, partial curve, poor fit]",–
Cc1nc(CS(=O)(=O)c2ccc(Cl)cc2)cc(Sc2ccccc2Cl)n1,"inconclusive: 14.1 µM [inhibitor, single point]",–
CO/N=C(/CS(=O)(=O)Cc1ccccc1Cl)c1ccc(Cl)cc1Cl,"inconclusive: 9.2 µM [inhibitor, partial curve, poor fit]",–
CN(Cc1nc2ccccc2c(=O)[nH]1)C(=O)c1cccc(S(=O)(=O)N2CCc3ccccc32)c1,"inconclusive: 35.5 µM [inhibitor, single point]",–
COc1ccc(Cn2nnnc2C(c2ccccn2)N2CCN(c3cc(Cl)ccc3C)CC2)cc1 (configuration not stated),"inactive and inconclusive: 20.6 µM [inhibitor, single point]",–
Cc1onc(NC(=O)c2ccc(Cl)cc2Cl)c1Br,–,inactive: 2.2% [at 46.1 µM]
Cc1cc(OC(=O)c2ccco2)c2c3c(c(=O)oc2c1)CCC3,"inconclusive: 32.6 µM [inhibitor, partial curve, poor fit]",–

Structure (SMILES),Potency,"activity change, negative = inhibition"
O=C(NCCc1nc2ccccc2[nH]1)c1ccco1,–,inactive: 18%
N#Cc1c(N)nc2c(c1-c1ccncc1)CCCCC2,"inconclusive: 1.83 µM [inhibitor, full curve]",–
O=C(CSc1ccc(-c2cccs2)nn1)Nc1ccccc1,"inconclusive: 10 µM [inhibitor, partial curve, poor fit]",–
COc1ccc(N(CC(=O)N2CCOCC2)S(C)(=O)=O)cc1Cl,"inconclusive: 6.31 µM [inhibitor, single point]",–
Cc1cccc(NC(=O)CSc2ncc(-c3ccc(Br)cc3)[nH]2)c1,"inconclusive: 35.5 µM [inhibitor, single point]",–
COc1cccc(C(=O)Nc2cc(C)on2)c1OC,"inconclusive: 35.5 µM [activator, single point]",–
CC1CCC(NC(=O)CNC(=O)c2cccs2)CC1 (configuration not stated),"inconclusive: 5.62 µM [activator, single point]",–
Cc1cccc(NC(=O)Cn2c(=O)n(Cc3ccccc3)c(=O)c3sc4ccccc4c32)c1,–,inactive: 3.22% [at 46.1 µM]
CCOc1ccc2nc(SCc3ccc(C(=O)OC)o3)[nH]c2c1,–,inactive: -2.86%
COC(=O)CSc1nc2sc3c(c2c(=O)n1-c1ccccc1)CCN(C)C3,–,inactive: 5.21%
CCc1cccc(C)c1Nc1c(-c2ccc(SC)cc2)nc2sccn12,"inconclusive: 11.2 µM [activator, partial curve]",–
CCCn1cc2c(c1-c1ccc(C)cc1)c(=O)n(C)c(=O)n2C,"inconclusive: 7.08 µM [inhibitor, full curve, poor fit]",–
CC1CCc2c(sc(NC(=O)CSc3nnc(-c4ccccc4)o3)c2C#N)C1 (configuration not stated),"inconclusive: 2.24 µM [activator, partial curve, poor fit]",–
COc1ccccc1N1CCN(C(CNS(=O)(=O)c2ccc(C)cc2)c2cccnc2)CC1 (configuration not stated),"inconclusive: 1.12 µM [inhibitor, full curve]",–
COC(=O)c1cnc(Oc2ccc(NC(=O)NC(=O)c3c(F)cccc3Cl)cc2)cc1C(F)(F)F,"inconclusive: 0.562 µM [inhibitor, full curve, poor fit]",–
COc1ccc(Nc2ncnc3c2cnn3Cc2ccccc2)cc1OC,"inconclusive: 5.17 µM [inhibitor, full curve, poor fit]",–
Cc1ccc(OCc2cc(C(=O)N(C)Cc3cnn(-c4ccccc4C)c3)no2)cn1,"inconclusive: 35.5 µM [inhibitor, single point]",–
O=C(NC12CC3CC(CC(C3)C1)C2)N1CCN(c2ncccn2)CC1,"inconclusive: 11.2 µM [inhibitor, partial curve, poor fit]",–
CCCn1c2ccccc2c2cnn(CC(=O)NC3CCN(Cc4ccccc4)CC3)c(=O)c21,"inconclusive: 1.78 µM [inhibitor, partial curve, poor fit]",–
CCOC(=O)c1c(NC(=O)CN2CCCCC2)sc2c1CCN(C(=O)OCC)C2,"inconclusive: 23.1 µM [inhibitor, partial curve, poor fit]",–
COc1ccc(NC(=S)Nc2cc(C)ccn2)c(OC)c1,"inconclusive: 1.41 µM [activator, full curve, poor fit]",–
